# Experimental data: PubChem BioAssay AID445 (National Center for Advancing Translational Sciences (NCATS), 2006)
# Some of the results follow. Further columns of the screen follow, without active or inactive calls. The list favours compounds with an active or inconclusive main result. Words in brackets tell the shape of the fitted curve; partial curves, single points and poor fits give uncertain potencies.
# Experiment: IkB Signaling
# Settings: ABC-DLBCL IkBa-CBG/CBR dual luciferase ratio (green luciferase fused to IkBa over red control in OCI-Ly3 lymphoma cells), 4 h
# Method in brief: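 Luminescence ratio of IκBα-fused green versus native red beetle luciferase in OCI-Ly3 cells, 4 h post-doxycycline with compound; red signal alone, scaled from basal (0%) to zero light (-100%), flagged nonspecific or cytotoxic effects.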
# [1] = measured here: control luc red channel unless noted
structure (smiles),measurement,setting,value
COc1ccc(OC)c(Nc2ncnc3c2cnn3-c2ccc(C)cc2)c1,AC50,[1],"20 µM [falling, single point]"
Cc1c(NC(=O)c2cc(-c3ccc(O)cc3)on2)c(=O)n(-c2ccccc2)n1C,AC50,[1],"12.6 µM [falling, partial curve]"
COc1ccccc1CNc1nc2ccccc2c2nc(-c3cccnc3)nn12,AC50,[1],"39.8 µM [falling, single point]"
COCCCNC(=O)c1cnn(-c2ccccc2Cl)c1C1CCN(C(=O)OC(C)(C)C)CC1,AC50,[1],"39.8 µM [falling, single point]"
CCc1ccc(CNc2ccc(N3CCN(C(C)=O)CC3)cc2)cc1,AC50,[1],"25.1 µM [falling, partial curve]"
COc1ccc(CNC(=O)C2CCN(C(=O)c3ccc(-n4ccc5ccccc54)s3)CC2)cc1,AC50,[1],"12.6 µM [falling, partial curve]"
COC(=O)c1ccc(NC(=O)CSc2cn(CC(=O)N3CCCCCC3)c3ccccc23)cc1,AC50,[1],"20 µM [falling, single point]"
COc1cccc(NC(=O)C2CCCN(c3nnc(-n4c(C)ccc4C)s3)C2)c1 (stereo not given),AC50,[1],"25.1 µM [falling, single point]"
COCCCn1c(=N)c(S(=O)(=O)c2ccccc2)cc2c(=O)n3cc(C)ccc3nc21,AC50,[1],"3.16 µM [rising, single point]"
Cc1ccccc1OCC(=O)Nc1ccc2nc(SCC(=O)N(C)c3ccccc3)sc2c1,AC50,[1],"7.94 µM [falling, partial curve]"
CC(C)(C)OC(=O)N1CCC(c2c(C(=O)N3CCN(c4ccc(Cl)cc4)CC3)cnn2-c2ccc(F)cc2F)CC1,AC50,[1],"25.1 µM [falling, partial curve]"
CCN1CC=C2C(C#N)=C(N)C(C#N)(C#N)C(c3cc(Cl)ccc3Cl)C2C1 (stereo not given),AC50,[1],"39.8 µM [falling, single point]"
COC(=O)CSc1ncccc1-c1nc2ccccc2[nH]1,AC50,[1],"0.158 µM [falling, full curve]"
COc1ccc(Cl)cc1NC(=O)c1cc2ccc3ccc(C)[nH]c3c2n1,AC50,[1],"0.631 µM [falling, full curve]"
Cc1ccc(Cn2c(CNS(=O)(=O)c3ccc(C(C)(C)C)cc3)nc3cccnc32)cc1,AC50,[1],"31.6 µM [falling, single point]"
O=C(c1cc(-c2ccc(Cl)cc2)on1)N(Cc1cccc(F)c1)Cc1ccco1,AC50,[1],"25.1 µM [falling, single point]"
COc1ccc(-c2cc(C(=O)Nc3ccc4c(c3)OCO4)no2)cc1OC,AC50,[1],"0.00631 µM [rising, full curve, poor fit]"
Cc1ccc(NS(=O)(=O)c2ccc(NC(=O)c3ccc(Br)o3)cc2)c(C)c1,AC50,[1],"3.98 µM [falling, full curve]"
O=C(NCCc1ccccc1)c1cnn(-c2ccc(F)cc2)c1-n1cccc1,AC50,[1],"25.1 µM [falling, single point]"
CCOC(=O)N1CCc2c(sc3c2c(=O)n(CCc2ccccc2)c(=O)n3Cc2c(F)cccc2Cl)C1,AC50,[1],"7.94 µM [falling, partial curve]"
CCc1ccc(CNC(=O)CN2CCSc3ccccc32)cc1,AC50,[1],"20 µM [falling, single point]"
Cc1ccc(NC(=O)CSc2nc3n[nH]c(C)c3c(=N)n2-c2cccc(C)c2)cc1,AC50,[1],"7.94 µM [falling, full curve, poor fit]"
CC1=C(C(=O)OCC2CCCO2)C(c2ccccc2OC(C)C)C2=C(CC(c3ccco3)CC2=O)N1 (stereo not given),AC50,[1],"25.1 µM [falling, partial curve]"
COc1ccc(N2CCN(c3oc(/C=C/c4cc(OC)c(OC)c(OC)c4)nc3C#N)CC2)cc1,AC50,[1],"10 µM [falling, partial curve]"
Cc1cc(C)cc(Oc2nc3c(c(=O)n(C)c(=O)n3C)n2Cc2ccc(F)cc2)c1,AC50,[1],"25.1 µM [falling, partial curve]"
COc1ccc(F)cc1S(=O)(=O)NCCc1sc2nc(-c3ccc(F)cc3)nn2c1C,AC50,[1],"10 µM [falling, partial curve]"
O[C@@H]1[C@@H]2c3cc4c(cc3CN3CCC(=C[C@@H]1O)[C@H]23)OCO4,AC50,measured here: IkB-luc green channel,"1.58 µM [rising, partial curve]"
same,AC50,measured here: control luc red channel,"5.01 µM [falling, full curve]"
O=S(=O)(NCc1cn2ccsc2n1)c1ccc(Oc2ccccc2)cc1,AC50,[1],"3.98 µM [falling, full curve]"
Cc1cc(OCC(=O)N(Cc2sccc2C)C2CCS(=O)(=O)C2)ccc1Cl (stereo not given),AC50,[1],"15.8 µM [falling, partial curve]"
Cc1cc(C)c2c(CC(=O)Nc3c(C(=O)Nc4ccc(Cl)cc4)oc4ccccc34)coc2c1,AC50,[1],"12.6 µM [falling, partial curve]"
CC(C)COc1ccc(C(=O)CCN2CCCCC2)cc1,AC50,[1],"20 µM [falling, partial curve]"
CCOc1ccc(-c2nnc(SCc3nnc(-c4ccccc4)o3)n2-c2ccccc2F)cc1,AC50,[1],"12.6 µM [falling, partial curve]"
CCn1c(=O)c2sccc2n2c(CCC(=O)Nc3cc(C)cc(C)c3)nnc12,AC50,[1],"5.01 µM [rising, full curve, poor fit]"
Cc1ccc(Cl)cc1N1CCN(c2ncnc3onc(C)c23)CC1,AC50,[1],"15.8 µM [falling, partial curve]"
CCOc1ccc(NC(=O)c2nccnc2CO)cc1,AC50,[1],"10 µM [falling, partial curve]"
CCC(c1nnnn1C(C)(C)C)N1CCN(c2cc(Cl)ccc2C)CC1 (stereo not given),AC50,[1],"15.8 µM [falling, partial curve]"
Cc1cc(C)c2c(CC(=O)N(Cc3ccccc3)C3CCS(=O)(=O)C3)coc2c1 (stereo not given),AC50,[1],"31.6 µM [falling, single point]"
CCC(=O)N1CCc2cc(Br)cc(S(=O)(=O)N3CCCC(C(=O)N(C)c4ccc(Br)cc4)C3)c21 (stereo not given),AC50,[1],"12.6 µM [falling, partial curve]"
COc1ccc(C(=O)NCCn2cc(SCC(=O)Nc3cc(C)on3)c3ccccc32)cc1OC,AC50,[1],"12.6 µM [falling, partial curve]"

# Given with bars between the fields: entries from further up.
structure (smiles) | measurement | setting | value
COc1ccc(OC)c(Nc2ncnc3c2cnn3-c2ccc(C)cc2)c1 | AC50 | [1] | 20 µM [falling, single point]
Cc1ccc(NS(=O)(=O)c2ccc(NC(=O)c3ccc(Br)o3)cc2)c(C)c1 | AC50 | [1] | 3.98 µM [falling, full curve]
